Measurements taken from doi:10.1101/2023.08.22.554218.
These are yes or no findings as the source states them, for the method shown. Binding seen in cells or lysates may run through a third protein. A yes stands for co-enrichment or nearness to the bait. Other partners may have been found. Tags and fused reporters may be left off the sequences shown.

Target: T1, PDZD8-3×HA (endogenous PDZD8 of the Pdzd8-3×HA knock-in mouse) (mouse (endogenous in neocortex, knock-in)) (UniProt B9EJ80)
T1 sequence: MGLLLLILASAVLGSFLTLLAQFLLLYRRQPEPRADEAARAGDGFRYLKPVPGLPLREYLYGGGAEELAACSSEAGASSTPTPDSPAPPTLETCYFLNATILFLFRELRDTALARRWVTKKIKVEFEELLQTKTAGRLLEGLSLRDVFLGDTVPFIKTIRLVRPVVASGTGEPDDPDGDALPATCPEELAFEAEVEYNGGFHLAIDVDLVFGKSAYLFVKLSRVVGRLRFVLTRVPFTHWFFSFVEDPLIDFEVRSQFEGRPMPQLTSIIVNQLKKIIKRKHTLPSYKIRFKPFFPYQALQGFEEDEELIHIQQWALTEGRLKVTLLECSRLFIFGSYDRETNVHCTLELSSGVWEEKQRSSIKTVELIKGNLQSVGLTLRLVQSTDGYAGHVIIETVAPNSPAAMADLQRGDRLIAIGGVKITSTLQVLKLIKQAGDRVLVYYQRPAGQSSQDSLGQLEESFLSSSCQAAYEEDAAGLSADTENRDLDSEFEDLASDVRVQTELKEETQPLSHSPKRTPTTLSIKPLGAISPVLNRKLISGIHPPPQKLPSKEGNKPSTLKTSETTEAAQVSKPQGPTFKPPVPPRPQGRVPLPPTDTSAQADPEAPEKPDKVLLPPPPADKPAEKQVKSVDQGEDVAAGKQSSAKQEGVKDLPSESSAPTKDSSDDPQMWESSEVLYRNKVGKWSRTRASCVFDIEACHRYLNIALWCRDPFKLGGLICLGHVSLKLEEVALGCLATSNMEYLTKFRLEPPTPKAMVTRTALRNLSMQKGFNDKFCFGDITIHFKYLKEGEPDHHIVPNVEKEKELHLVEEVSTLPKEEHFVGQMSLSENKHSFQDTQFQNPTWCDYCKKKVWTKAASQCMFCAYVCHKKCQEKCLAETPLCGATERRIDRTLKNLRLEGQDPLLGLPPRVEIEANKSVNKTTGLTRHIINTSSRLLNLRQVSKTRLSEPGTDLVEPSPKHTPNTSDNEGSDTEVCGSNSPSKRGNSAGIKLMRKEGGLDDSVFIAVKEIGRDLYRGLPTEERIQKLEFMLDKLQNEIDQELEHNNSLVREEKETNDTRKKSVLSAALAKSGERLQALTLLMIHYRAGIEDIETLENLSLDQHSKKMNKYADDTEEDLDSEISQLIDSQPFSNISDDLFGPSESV
Experiment: affinity purification with mass spectrometry

B1: VAPA, endogenous, mouse neocortex (protein, UniProt Q9WV55 1-249)
chain: MASASGAMAKHEQILVLDPPSDLKFKGPFTDVVTTNLKLQNPSDRKVCFKVKTTAPRRYCVRPNSGIIDPGSIVTVSVMLQPFDYDPNEKSKHKFMVQTIFAPPNISDMEAVWKEAKPDELMDSKLRCVFEMPNENDKLNDMEPSKAVPLNASKQDGPLPKPHSVSLNDTETRKLMEECKRLQGEMMKLSEENRHLRDEGLRLRKVAHSDKPGSTSAVSFRDNVTSPLPSLLVVIAAIFIGFFLGKFIL
  binding: binds
